Measurements as given in PubChem BioAssay AID344 (DTP/NCI, 2004).
The list shows only some results of the screen, not a fair sample: it covers a few groups of compounds. Other doses and runs of a compound may be missing. T/C: endpoint of the treated group in % of that of the vehicle group. Some doses have a count of surviving animals in place of a T/C: the source holds a T/C of zero for them, seemingly a mark for toxic or unscored doses. Counts of survivors are from the toxicity check (mostly the fifth day) where no day follows; animals may have died later. Schedule codes are those of the source, read here as Q, the interval in days (D) or hours (H), X, the number of doses. For survival time, this PubChem deposit counts one and a half times the control or more as active, and values a quarter to a half above the control carry no call in these data; other NCI protocols may use other cut-offs. Some T/C values carry the count of animals alive at the toxicity check (mostly the fifth day); without a count or a note in brackets, all were alive then.

System: mice, LPC-1 plasma cell tumor ip, median survival T/C
Experiment: NCI In Vivo Anticancer Drug Screen. Data for tumor model Lieberman Plasma Cell No. 1 (LPC-1) (intraperitoneal) in unknown mice
Conditions: T/C endpoint: median survival time, higher T/C = longer survival
Protocol: The antitumor activity of compounds was measured in mice bearing transplantable tumors. Survival or tumor size were measured and the results are expressed as the measurement made in the treated group (T) divided by the measurement made in the vehicle treated control group (C). The tumor model used in this assay is Lieberman Plasma Cell No. 1 (LPC-1) (intraperitoneal) in unknown mice

Compound: O=P1(N(CCCl)CCCl)OCC2CCCN21 (stereo unspecified)
- T/C (dose: 31.25 mg/kg/injection, schedule: Q01DX010 (sc), vehicle: saline): 111 % of control
- T/C (dose: 62.5 mg/kg/injection, schedule: Q01DX010 (sc), vehicle: saline): 104 % of control [9 of 10 alive]
- T/C (dose: 125.0 mg/kg/injection, schedule: Q01DX010 (sc), vehicle: saline): 102 % of control [8 of 10 alive]
- T/C (dose: 250.0 mg/kg/injection, schedule: Q01DX010 (sc), vehicle: saline): 97 % of control [9 of 10 alive]

Compound: CC[C@@H](C)[C@@H]1NC(=O)/C(=C(\C)O)C1=O.c1ccc(CNCCNCc2ccccc2)cc1
- T/C (dose: 6.3 mg/kg/injection, schedule: Q01DX028 (sc), vehicle: saline): 95 % of control [8 of 12 alive]
- survivor count (dose: 12.5 mg/kg/injection, schedule: Q01DX028 (sc), vehicle: saline): 5 of 12
- survivor count (dose: 25.0 mg/kg/injection, schedule: Q01DX028 (sc), vehicle: saline): 6 of 12
- survivor count (dose: 50.0 mg/kg/injection, schedule: Q01DX028 (sc), vehicle: saline): 2 of 12

Compound: CC(Cl)CN(CC(C)Cl)C(=O)OCC(N)C(=O)O (stereo unspecified)
- T/C (dose: 67.0 mg/kg/injection, schedule: Q01DX028 (sc), vehicle: carboxymethylcellulose (CMC)): 92 % of control [8 of 10 alive]
- T/C (dose: 125.0 mg/kg/injection, schedule: Q01DX028 (sc), vehicle: carboxymethylcellulose (CMC)): 107 % of control [9 of 10 alive]
- T/C (dose: 250.0 mg/kg/injection, schedule: Q01DX028 (sc), vehicle: carboxymethylcellulose (CMC)): 100 % of control
- T/C (dose: 500.0 mg/kg/injection, schedule: Q01DX028 (sc), vehicle: carboxymethylcellulose (CMC)): 97 % of control [7 of 10 alive]

Compound: NC(Cc1ccc(N(CCF)CCCl)cc1)C(=O)O (stereo unspecified)
- T/C (dose: 10.0 mg/kg/injection, schedule: Q01DX028 (sc), vehicle: saline): 146 % of control [6 of 8 alive]
- T/C (dose: 20.0 mg/kg/injection, schedule: Q01DX028 (sc), vehicle: saline): 116 % of control [7 of 8 alive]
- survivor count (dose: 40.0 mg/kg/injection, schedule: Q01DX028 (sc), vehicle: saline): 5 of 8
- T/C (dose: 80.0 mg/kg/injection, schedule: Q01DX028 (sc), vehicle: saline): 113 % of control [7 of 8 alive]
